PubChem BioAssay AID1159578, Peter MacCallum Cancer Centre – 2015

- Assay: 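Knock-downs that alter how fast lymphatic endothelial cells migrate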 (primary screen)
- Cells: human lymphatic endothelial cells
- Reagents: siRNA pool against human genes, 40 nM
- Timing: 48 h after transfection
- Read-out: 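Cells stained with dye and imaged after a scratch; covered wound area and nuclei counted, duplicates averaged, migration set against mock wells and turned into a robust z-score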
- Scale: migration robust z-score: higher = faster migration into the scratch; nuclei per well: higher = more cells in the well
- Hit rule: 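Pools averaging fewer than 3300 nuclei are never called; remaining pools count as changed when migration robust z lies outside -2 to 2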
- Meaning of the calls: active = migration changed; inactive = no migration change, or too few cells
The deposit covers about 18,000 reagents; this is an unselected part. About 1,030 of all reagents (5.7%) count as active. 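Inactive calls also include pools with fewer than 3300 nuclei, whose migration was not assessed.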 Raw values vary from plate to plate and are shown uncorrected. Not all columns of the deposit are shown. No sequences are given here.

ALKAL1
- migration robust z-score: -0.78
- nuclei per well, duplicate mean: 6828
- outcome: inactive

ANKRD45
- migration robust z-score: 0.1
- nuclei per well, duplicate mean: 5292
- outcome: inactive

COX6B2
- migration robust z-score: 0.21
- nuclei per well, duplicate mean: 6282
- outcome: inactive

LGI1
- migration robust z-score: -0.37
- nuclei per well, duplicate mean: 5316
- outcome: inactive

MYOCD
- migration robust z-score: 0.02
- nuclei per well, duplicate mean: 6422
- outcome: inactive

The list goes on, starting with the last 2 of the part before.
LGI1
- migration robust z-score: -0.37
- nuclei per well, duplicate mean: 5316
- outcome: inactive

MYOCD
- migration robust z-score: 0.02
- nuclei per well, duplicate mean: 6422
- outcome: inactive

SLC16A6
- migration robust z-score: -0.21
- nuclei per well, duplicate mean: 5719
- outcome: inactive

MRPL45
- migration robust z-score: 1.04
- nuclei per well, duplicate mean: 5355
- outcome: inactive

EPC1
- migration robust z-score: 0.31
- nuclei per well, duplicate mean: 6356
- outcome: inactive

DHRS4
- migration robust z-score: 0.11
- nuclei per well, duplicate mean: 4798
- outcome: inactive

CASP6
- migration robust z-score: -0.05
- nuclei per well, duplicate mean: 5186
- outcome: inactive

POGK
- migration robust z-score: -1.77
- nuclei per well, duplicate mean: 5364
- outcome: inactive

SPATA12
- migration robust z-score: 0.16
- nuclei per well, duplicate mean: 4964
- outcome: inactive
